This is one part of the list.

Amino acid sequences for entries named in this document (tags omitted). A change or cut given only in a name is not applied to a line headed by its entry.
UniProt P03928: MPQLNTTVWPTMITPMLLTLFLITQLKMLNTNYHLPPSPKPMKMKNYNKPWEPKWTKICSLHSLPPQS
UniProt Q2M296: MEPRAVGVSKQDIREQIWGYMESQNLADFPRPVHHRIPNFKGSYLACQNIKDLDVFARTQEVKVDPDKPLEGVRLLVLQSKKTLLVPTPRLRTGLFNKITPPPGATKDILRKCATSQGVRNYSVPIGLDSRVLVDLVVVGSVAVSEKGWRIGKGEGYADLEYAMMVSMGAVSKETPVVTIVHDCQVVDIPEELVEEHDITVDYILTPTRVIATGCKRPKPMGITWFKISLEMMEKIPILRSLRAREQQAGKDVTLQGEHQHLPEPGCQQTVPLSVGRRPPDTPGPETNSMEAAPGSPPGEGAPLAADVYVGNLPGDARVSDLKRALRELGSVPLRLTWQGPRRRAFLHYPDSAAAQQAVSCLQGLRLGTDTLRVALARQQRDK
UniProt Q9UGC7: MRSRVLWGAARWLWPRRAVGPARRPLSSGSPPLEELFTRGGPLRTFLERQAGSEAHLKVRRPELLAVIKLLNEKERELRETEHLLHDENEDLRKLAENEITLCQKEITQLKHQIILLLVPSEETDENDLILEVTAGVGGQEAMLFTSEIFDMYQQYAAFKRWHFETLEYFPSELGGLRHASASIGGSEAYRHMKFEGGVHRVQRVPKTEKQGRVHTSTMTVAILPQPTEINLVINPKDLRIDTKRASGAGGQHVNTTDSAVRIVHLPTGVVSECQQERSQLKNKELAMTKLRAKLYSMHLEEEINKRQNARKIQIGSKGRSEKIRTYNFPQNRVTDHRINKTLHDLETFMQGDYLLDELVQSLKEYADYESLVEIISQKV
UniProt Q9Y3D2: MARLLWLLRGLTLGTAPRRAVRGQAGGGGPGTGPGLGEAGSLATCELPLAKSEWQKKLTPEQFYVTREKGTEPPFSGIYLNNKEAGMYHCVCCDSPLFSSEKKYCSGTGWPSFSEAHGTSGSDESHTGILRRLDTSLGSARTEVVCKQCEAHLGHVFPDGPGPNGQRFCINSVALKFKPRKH
UniProt O94776: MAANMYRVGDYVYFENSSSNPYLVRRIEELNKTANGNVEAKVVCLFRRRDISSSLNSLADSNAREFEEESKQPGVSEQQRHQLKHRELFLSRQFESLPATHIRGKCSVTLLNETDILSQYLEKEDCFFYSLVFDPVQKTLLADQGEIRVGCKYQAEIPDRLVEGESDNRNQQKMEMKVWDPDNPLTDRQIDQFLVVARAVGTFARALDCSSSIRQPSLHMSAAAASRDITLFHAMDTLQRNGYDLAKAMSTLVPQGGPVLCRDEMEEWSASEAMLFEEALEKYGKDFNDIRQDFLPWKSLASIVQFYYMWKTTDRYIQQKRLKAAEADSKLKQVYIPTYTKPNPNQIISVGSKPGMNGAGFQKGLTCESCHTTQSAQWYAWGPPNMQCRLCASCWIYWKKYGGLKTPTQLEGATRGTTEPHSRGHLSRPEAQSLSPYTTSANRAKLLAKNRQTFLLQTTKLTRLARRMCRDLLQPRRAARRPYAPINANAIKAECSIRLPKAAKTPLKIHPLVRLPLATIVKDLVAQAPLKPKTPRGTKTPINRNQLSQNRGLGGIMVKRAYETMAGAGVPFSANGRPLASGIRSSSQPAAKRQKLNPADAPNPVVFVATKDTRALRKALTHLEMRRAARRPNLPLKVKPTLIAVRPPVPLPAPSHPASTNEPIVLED
UniProt P52701: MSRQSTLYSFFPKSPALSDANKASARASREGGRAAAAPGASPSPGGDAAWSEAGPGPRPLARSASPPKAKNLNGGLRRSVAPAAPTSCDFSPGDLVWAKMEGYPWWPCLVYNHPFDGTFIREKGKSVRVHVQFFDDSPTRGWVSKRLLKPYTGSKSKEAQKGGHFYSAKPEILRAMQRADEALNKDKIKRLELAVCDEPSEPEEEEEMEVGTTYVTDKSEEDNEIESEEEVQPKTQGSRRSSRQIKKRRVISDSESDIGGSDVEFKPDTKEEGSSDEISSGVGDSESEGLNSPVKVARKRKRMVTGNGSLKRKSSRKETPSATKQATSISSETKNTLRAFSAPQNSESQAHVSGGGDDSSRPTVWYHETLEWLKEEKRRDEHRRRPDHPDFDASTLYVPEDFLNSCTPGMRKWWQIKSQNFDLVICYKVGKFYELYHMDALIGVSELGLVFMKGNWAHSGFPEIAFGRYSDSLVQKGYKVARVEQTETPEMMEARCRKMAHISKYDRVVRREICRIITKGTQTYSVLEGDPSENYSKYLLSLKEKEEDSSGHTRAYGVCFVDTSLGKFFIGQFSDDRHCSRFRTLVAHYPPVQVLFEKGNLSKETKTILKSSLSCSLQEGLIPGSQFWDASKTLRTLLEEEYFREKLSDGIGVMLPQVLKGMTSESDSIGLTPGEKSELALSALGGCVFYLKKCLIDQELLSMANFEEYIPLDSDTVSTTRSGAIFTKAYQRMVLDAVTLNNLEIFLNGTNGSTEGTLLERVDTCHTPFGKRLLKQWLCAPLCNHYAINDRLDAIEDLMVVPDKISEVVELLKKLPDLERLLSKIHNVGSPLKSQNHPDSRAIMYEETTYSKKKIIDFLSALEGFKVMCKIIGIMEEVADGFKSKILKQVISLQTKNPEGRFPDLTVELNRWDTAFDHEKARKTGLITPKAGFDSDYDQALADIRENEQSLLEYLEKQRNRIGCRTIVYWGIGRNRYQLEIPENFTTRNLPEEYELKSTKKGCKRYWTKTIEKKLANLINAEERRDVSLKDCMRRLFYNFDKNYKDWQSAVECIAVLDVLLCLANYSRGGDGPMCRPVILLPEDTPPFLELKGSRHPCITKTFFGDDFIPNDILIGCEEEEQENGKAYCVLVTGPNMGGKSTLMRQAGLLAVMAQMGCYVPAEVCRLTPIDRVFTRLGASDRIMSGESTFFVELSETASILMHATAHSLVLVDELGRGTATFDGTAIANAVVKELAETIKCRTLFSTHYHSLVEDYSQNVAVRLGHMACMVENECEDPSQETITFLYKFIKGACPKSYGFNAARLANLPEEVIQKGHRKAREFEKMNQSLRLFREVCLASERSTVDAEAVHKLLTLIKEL
UniProt Q15800: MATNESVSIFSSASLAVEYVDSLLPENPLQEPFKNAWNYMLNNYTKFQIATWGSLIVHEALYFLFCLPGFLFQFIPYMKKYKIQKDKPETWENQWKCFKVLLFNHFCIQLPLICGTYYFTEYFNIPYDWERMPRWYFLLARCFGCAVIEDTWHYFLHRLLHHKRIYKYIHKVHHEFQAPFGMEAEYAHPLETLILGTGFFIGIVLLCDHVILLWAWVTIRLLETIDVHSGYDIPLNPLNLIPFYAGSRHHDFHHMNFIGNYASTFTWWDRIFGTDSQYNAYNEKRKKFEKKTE
UniProt Q96E11: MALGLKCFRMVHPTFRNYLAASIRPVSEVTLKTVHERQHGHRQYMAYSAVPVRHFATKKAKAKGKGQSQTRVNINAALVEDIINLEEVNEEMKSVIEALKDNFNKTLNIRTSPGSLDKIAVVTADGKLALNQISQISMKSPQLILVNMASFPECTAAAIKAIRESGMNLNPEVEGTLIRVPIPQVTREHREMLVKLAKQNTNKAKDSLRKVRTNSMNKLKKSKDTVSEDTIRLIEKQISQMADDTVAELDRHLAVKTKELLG
UniProt Q9UBK8: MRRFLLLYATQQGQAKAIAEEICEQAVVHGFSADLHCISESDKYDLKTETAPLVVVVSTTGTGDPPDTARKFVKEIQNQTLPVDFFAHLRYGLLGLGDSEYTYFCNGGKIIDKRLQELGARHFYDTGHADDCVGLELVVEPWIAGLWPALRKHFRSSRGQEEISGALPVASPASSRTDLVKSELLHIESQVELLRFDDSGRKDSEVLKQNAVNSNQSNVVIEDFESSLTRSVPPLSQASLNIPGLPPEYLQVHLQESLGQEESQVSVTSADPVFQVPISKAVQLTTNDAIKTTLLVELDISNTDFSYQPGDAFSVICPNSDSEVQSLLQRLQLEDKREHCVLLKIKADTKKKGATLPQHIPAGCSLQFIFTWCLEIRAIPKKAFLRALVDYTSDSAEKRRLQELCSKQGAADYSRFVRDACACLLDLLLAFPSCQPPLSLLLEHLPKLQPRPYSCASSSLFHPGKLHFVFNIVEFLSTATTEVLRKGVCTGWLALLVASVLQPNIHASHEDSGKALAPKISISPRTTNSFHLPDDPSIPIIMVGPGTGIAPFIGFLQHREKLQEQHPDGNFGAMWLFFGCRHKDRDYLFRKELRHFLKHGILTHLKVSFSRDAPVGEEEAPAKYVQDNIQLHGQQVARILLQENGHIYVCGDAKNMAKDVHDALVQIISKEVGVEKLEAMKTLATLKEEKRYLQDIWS
MTHFD1, A0A384N5Y3, UniProt A0A384N5Y3, whole entry, looked up: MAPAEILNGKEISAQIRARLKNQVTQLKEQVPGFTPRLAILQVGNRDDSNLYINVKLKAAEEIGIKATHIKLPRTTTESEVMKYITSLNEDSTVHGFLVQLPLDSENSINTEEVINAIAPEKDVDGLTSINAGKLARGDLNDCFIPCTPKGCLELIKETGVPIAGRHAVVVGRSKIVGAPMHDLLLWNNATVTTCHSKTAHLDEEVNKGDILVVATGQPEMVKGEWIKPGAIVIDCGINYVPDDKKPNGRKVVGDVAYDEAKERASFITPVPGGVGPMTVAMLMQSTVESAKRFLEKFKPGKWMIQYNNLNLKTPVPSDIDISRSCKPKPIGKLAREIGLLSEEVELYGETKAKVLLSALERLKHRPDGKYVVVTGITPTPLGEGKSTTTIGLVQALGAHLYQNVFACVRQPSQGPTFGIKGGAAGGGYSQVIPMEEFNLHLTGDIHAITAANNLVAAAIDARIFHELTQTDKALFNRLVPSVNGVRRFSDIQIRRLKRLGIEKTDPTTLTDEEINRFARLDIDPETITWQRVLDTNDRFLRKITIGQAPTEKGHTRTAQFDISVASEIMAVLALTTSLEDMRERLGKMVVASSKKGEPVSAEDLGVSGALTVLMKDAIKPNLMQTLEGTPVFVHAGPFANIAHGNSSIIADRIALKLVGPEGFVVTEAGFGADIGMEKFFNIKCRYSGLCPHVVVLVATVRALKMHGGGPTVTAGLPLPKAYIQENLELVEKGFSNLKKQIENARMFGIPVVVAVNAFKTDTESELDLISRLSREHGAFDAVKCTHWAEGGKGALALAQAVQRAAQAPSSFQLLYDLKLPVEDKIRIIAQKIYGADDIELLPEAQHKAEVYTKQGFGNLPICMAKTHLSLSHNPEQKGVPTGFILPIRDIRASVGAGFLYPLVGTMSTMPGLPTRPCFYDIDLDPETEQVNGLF
UniProt P03905, whole entry, looked up: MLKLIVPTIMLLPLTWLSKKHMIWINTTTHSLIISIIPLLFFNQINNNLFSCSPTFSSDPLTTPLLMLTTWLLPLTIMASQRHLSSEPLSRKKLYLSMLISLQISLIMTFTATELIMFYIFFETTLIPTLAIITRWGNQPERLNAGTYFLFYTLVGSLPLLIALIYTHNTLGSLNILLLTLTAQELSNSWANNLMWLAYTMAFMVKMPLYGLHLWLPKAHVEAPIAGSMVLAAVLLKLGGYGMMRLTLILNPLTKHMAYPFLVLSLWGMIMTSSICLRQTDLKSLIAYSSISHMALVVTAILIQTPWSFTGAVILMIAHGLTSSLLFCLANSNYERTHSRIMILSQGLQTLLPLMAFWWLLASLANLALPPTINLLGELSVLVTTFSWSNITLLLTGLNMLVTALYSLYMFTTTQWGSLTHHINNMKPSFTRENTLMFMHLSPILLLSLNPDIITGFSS
UniProt Q9Y6C9: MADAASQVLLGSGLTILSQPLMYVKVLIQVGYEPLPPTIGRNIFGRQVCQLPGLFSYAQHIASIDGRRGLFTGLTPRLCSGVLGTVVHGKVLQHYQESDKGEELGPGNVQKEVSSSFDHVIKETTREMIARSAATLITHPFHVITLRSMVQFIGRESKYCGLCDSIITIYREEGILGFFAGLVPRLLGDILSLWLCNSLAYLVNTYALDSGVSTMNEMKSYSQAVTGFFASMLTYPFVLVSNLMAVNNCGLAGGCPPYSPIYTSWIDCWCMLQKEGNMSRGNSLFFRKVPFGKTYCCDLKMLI
UniProt Q13496: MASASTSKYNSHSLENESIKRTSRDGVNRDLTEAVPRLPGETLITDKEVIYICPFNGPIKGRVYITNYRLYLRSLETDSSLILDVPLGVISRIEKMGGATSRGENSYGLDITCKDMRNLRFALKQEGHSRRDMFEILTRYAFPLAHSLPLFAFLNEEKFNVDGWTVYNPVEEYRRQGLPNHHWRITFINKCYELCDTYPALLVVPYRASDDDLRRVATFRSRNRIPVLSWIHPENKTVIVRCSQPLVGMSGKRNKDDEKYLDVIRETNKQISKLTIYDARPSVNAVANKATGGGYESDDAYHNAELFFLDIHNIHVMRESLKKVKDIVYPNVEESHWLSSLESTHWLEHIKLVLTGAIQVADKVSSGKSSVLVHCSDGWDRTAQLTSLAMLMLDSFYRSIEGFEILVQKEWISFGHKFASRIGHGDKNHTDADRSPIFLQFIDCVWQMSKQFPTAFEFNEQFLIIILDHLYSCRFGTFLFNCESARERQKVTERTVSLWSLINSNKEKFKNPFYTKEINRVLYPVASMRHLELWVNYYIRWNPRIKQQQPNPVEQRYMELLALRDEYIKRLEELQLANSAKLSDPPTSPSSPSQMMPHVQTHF

Compound in one assay: CCn1c(C(=O)N(C2CC2)C2CC2)cc2c3c(ncn3C)c(Nc3cc(C)n(C)n3)nc21
In words: log2 fold change, soluble protein after heating vs DMSO (PISA); higher = thermal stabilisation; K562 lysate, 10 uM; active = over 0.2 and 3.5 SD of the protein, either way, in both replicates (recomputed). The gist of the method: (§1)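 Pellets of K562 cells were dounce-homogenised in PBS pH 7.4 with 1 mM MgCl2, and the crude extract was held at 1 mg/mL protein for a 30 min treatment with 10 μM compound. Aliquots were heated for 3 min over 48°C-58°C and pooled before NP-40 was added to 0.5% at 4°C. The supernatant from 21,000xg for 90 min was quantified by TMTpro 16plex LC-MS/MS with channel sums equalised. Values are reported from duplicates as log-two fold change in thermal stability relative to solvent controls.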
On to MT-ATP8 (UniProt P03928), for which the log2 fold change was inactive: 0.128.

Turning to MRPL55 isoform 2 (UniProt Q7Z7F7), the log2 fold change is inactive: -0.002.

As to MT-CO1 (UniProt P00395), the log2 fold change was inactive: 0.005.

As for MRPL50 (UniProt Q8N5N7), the log2 fold change was inactive: -0.006.

Consider MTHFSD isoform 3 (UniProt Q2M296), for which the log2 fold change was inactive: 0.158.

For MTRF1L (UniProt Q9UGC7), the log2 fold change was inactive: -0.056.

Turning to MSRB2 (UniProt Q9Y3D2), the log2 fold change is inactive: -0.025.

Take MRPS14 (UniProt O60783): the log2 fold change was inactive: 0.007.

Take MRPL9 (UniProt Q9BYD2): the log2 fold change is inactive: -0.032.

For the target MRPL35 (UniProt Q9NZE8), the log2 fold change is inactive: 0.005.

Take MRPS26 (UniProt Q9BYN8): the log2 fold change was inactive: -0.108.

With MRPS9 (UniProt P82933), the log2 fold change is inactive: 0.019.

In the case of MTA2 (UniProt O94776), the log2 fold change is inactive: 0.025.

For MSH6 (UniProt P52701), the log2 fold change was inactive: 0.044.

Compound in the next assay: CCn1cc(-c2ccnc3[nH]c(-c4cccc(CN(C)C)c4)cc23)c(-c2ccc(NC(=O)N(C)C)cc2)n1
The description is as above. Summed up:
as §1
Regarding MRPS23 (UniProt Q9Y3D9), the log2 fold change was inactive: 0.124.

Take MTMR1 (UniProt Q13613): the log2 fold change is inactive: 0.07.

With MSMO1 (UniProt Q15800), the log2 fold change is inactive: -0.063.

MSI2 (UniProt Q96DH6): the log2 fold change is inactive: -0.014.

Turning to MRPS11 (UniProt P82912), the log2 fold change was inactive: -0.035.

Consider MTOR (UniProt P42345), for which the log2 fold change is inactive: -0.04.

MRPL37 (UniProt Q9BZE1): the log2 fold change was inactive: -0.024.

Regarding MRPL38 (UniProt Q96DV4), the log2 fold change is inactive: 0.005.

Consider MRPS27 isoform 2 (UniProt Q92552), for which the log2 fold change is inactive: -0.148.

Consider MRRF (UniProt Q96E11), for which the log2 fold change was inactive: 0.009.

As to MRPS6 (UniProt P82932), the log2 fold change was inactive: -0.037.

Turning to MRPL43 isoform 4 (UniProt Q8N983), the log2 fold change was inactive: -0.056.

For the target MTA1 (UniProt Q13330), the log2 fold change was inactive: 0.013.

For MTFR1 (UniProt Q15390), the log2 fold change was inactive: -0.044.

Take MRPS16 (UniProt Q9Y3D3): the log2 fold change is inactive: 0.592.

Turning to MTRR isoform 1 (UniProt Q9UBK8), the log2 fold change is inactive: 0.003.

MTHFD1, A0A384N5Y3: the log2 fold change was inactive: 0.008.

For MT-ND4 (UniProt P03905), the log2 fold change is inactive: 0.083.

For the target MTCH2 (UniProt Q9Y6C9), the log2 fold change was inactive: -0.155.

Regarding MRPS7 (UniProt Q9Y2R9), the log2 fold change is inactive: 0.001.

For the target MTM1 (UniProt Q13496), the log2 fold change is inactive: -0.074.

On to MT-ATP8 (UniProt P03928), for which the log2 fold change is active: 0.711.

For MRPL55 isoform 2 (UniProt Q7Z7F7), the log2 fold change is inactive: -0.003.

In the case of MT-CO1 (UniProt P00395), the log2 fold change was inactive: -0.157.

As to MRPS21 (UniProt P82921), the log2 fold change is inactive: -0.121.

On to MRPL50 (UniProt Q8N5N7), for which the log2 fold change was inactive: -0.068.

As for MTHFSD isoform 3 (UniProt Q2M296), the log2 fold change was inactive: 0.112.

With MTRF1L (UniProt Q9UGC7), the log2 fold change was inactive: -0.117.

MSRB2 (UniProt Q9Y3D2): the log2 fold change was inactive: -0.236.

Take MRPS14 (UniProt O60783): the log2 fold change is inactive: 0.011.

As to MRPL9 (UniProt Q9BYD2), the log2 fold change is inactive: 0.071.

Turning to MRPL35 (UniProt Q9NZE8), the log2 fold change was inactive: -0.124.

As to MRPS26 (UniProt Q9BYN8), the log2 fold change is inactive: -0.139.

For the target MRPS9 (UniProt P82933), the log2 fold change is inactive: -0.076.

For the target MTA2 (UniProt O94776), the log2 fold change was inactive: -0.021.

For MT1G (UniProt P13640), the log2 fold change was inactive: 0.

In the case of MSH6 (UniProt P52701), the log2 fold change was inactive: -0.035.

Compound in another assay: CN1CCC(CNc2ccc3ncc(-c4cccc(OC(F)(F)F)c4)n3n2)CC1
The assay is described as above. The gist of the method:
as §1
MRPS23 (UniProt Q9Y3D9): the log2 fold change was inactive: -0.117.

In the case of MTMR1 (UniProt Q13613), the log2 fold change is inactive: -0.076.

Regarding MSMO1 (UniProt Q15800), the log2 fold change was inactive: 0.069.

For the target MSI2 (UniProt Q96DH6), the log2 fold change is inactive: 0.002.

For the target MRPS11 (UniProt P82912), the log2 fold change is inactive: -0.021.

On to MTOR (UniProt P42345), for which the log2 fold change was inactive: -0.031.

Consider MRPL37 (UniProt Q9BZE1), for which the log2 fold change is inactive: -0.07.

Take MRPL38 (UniProt Q96DV4): the log2 fold change was inactive: -0.036.

In the case of MRPS27 isoform 2 (UniProt Q92552), the log2 fold change was inactive: 0.04.

Turning to MRRF (UniProt Q96E11), the log2 fold change is inactive: 0.001.

As for MRPS6 (UniProt P82932), the log2 fold change is inactive: -0.01.

For MRPL43 isoform 4 (UniProt Q8N983), the log2 fold change was inactive: -0.059.

In the case of MTA1 (UniProt Q13330), the log2 fold change is inactive: -0.061.

MTFR1 (UniProt Q15390): the log2 fold change is inactive: -0.021.

As for MRPS16 (UniProt Q9Y3D3), the log2 fold change is inactive: -0.057.

Take MTRR isoform 1 (UniProt Q9UBK8): the log2 fold change is inactive: 0.019.

In the case of MTHFD1, A0A384N5Y3, the log2 fold change is inactive: -0.053.

Turning to MT-ND4 (UniProt P03905), the log2 fold change was inactive: 0.034.

Take MTCH2 (UniProt Q9Y6C9): the log2 fold change was inactive: 0.014.

For MRPS7 (UniProt Q9Y2R9), the log2 fold change is inactive: 0.01.

For the target MTM1 (UniProt Q13496), the log2 fold change is inactive: -0.004.

On to MT-ATP8 (UniProt P03928), for which the log2 fold change is inactive: -0.144.

Take MRPL55 isoform 2 (UniProt Q7Z7F7): the log2 fold change is inactive: 0.058.

On to MT-CO1 (UniProt P00395), for which the log2 fold change was inactive: 0.14.

As for MRPS21 (UniProt P82921), the log2 fold change was inactive: 0.052.

MRPL50 (UniProt Q8N5N7): the log2 fold change was inactive: 0.009.

For the target MTHFSD isoform 3 (UniProt Q2M296), the log2 fold change was inactive: 0.013.

Turning to MTRF1L (UniProt Q9UGC7), the log2 fold change is inactive: 0.025.

As for MSRB2 (UniProt Q9Y3D2), the log2 fold change is inactive: -0.054.

On to MRPS14 (UniProt O60783), for which the log2 fold change was inactive: 0.133.

In the case of MRPL9 (UniProt Q9BYD2), the log2 fold change was inactive: -0.097.

Take MRPL35 (UniProt Q9NZE8): the log2 fold change was inactive: -0.011.

As for MRPS26 (UniProt Q9BYN8), the log2 fold change was inactive: -0.031.

For MRPS9 (UniProt P82933), the log2 fold change was inactive: 0.036.

For MTA2 (UniProt O94776), the log2 fold change is inactive: -0.031.

As to MT1G (UniProt P13640), the log2 fold change was inactive: -0.056.

MSH6 (UniProt P52701): the log2 fold change was inactive: -0.041.
